From patent US20190309055A1 (NORDIC BIOSCIENCE A S, published 2019) come the findings set out here.

The chains behind the UniProt entries cited, without tags or fusion partners. Residues count along the entry.
UniProt P12111, residues 3101-3177: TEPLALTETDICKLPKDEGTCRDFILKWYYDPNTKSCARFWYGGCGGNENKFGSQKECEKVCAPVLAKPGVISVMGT

These are yes or no findings as the source states them, for the method shown. Some results given as binding are weak or reduced against the parent protein; the word gives no strength.

Experiment [1] concerns the target native C-terminal fragment of the collagen type VI α3 chain in human serum and human amniotic fluid (around 10 kD bands) (human) (UniProt P12111). Nature of the experiment: competitive ELISA and western blot.
The target is the same in experiment [2]. Description: competitive ELISA and western blot on human serum pool and amniotic fluid pool.

B1: monoclonal antibody 10A3 (antibody, mouse IgG1, kappa, V domains shown)
VH: EVQLQQSGPVMVKPGTSVKTSCKASGYTFTDFNMNWVKQSHGKSLEWIGAINPHNGATSYNQKFSGKATLTVDKSSSTAYMELNSLTSDDSAVYYCARWGNGKNSWGQGTTLTVSS
VL: DVVMTQTPLSLPVNLGDQASISCRSSQRIVHSNGITFLEWYLQKPGQSPKLLIYRVSNRFSGVPDRFSGSGSGTDFTLKISRVEAEDLGLYYCFQGSHVPLTFGAGTRLELKR
notes: Mouse IgG1/kappa from hybridoma; also called the chosen antibody; HRP conjugated monoclonal antibody 10A3
Regarding B1, the binding result in experiment [1] and in experiment [2] was “binds” in each case.
